Here are results for six molecules from paper PMC10151520, “TapA acts as specific chaperone in TasA filament formation by strand complementation” (Proceedings of the National Academy of Sciences of the …, 2023).

No constants are given. Whether binding was seen depends on the method and setting. Some results given as binding are weak or reduced against the parent protein; the word gives no strength.

The target in experiment [1] is T1, TasA (mature protein, residues 28 to 261) (Bacillus subtilis) (UniProt P54507).
T1 sequence: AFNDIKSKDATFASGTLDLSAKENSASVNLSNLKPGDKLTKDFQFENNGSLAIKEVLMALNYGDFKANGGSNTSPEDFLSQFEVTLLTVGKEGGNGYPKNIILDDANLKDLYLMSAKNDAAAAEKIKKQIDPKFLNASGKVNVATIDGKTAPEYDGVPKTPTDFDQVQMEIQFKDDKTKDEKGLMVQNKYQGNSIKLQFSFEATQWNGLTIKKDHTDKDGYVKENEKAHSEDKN
Briefly: condition: only at pH 7 with 50 mM NaCl (200 µM TapA in the syringe, 20 µM TasA in the chamber); ITC; TapA (200 µM, syringe) titrated into TasA (20 µM, chamber), 18 °C, pH 7, 50 mM NaCl; both purified.

The target of experiment [2] is TapA (mature protein, residues 44 to 253) (B. subtilis 168) (UniProt P40949). Description: AUC; sedimentation velocity, each protein alone at 100 µM, 20 °C, 20 mM Na phosphate pH 7.0, 150 mM NaCl, 40,000 rpm, runs of 17 h, interference data; both purified.
For experiment [3] the target is unchanged. Briefly: SEC; gel filtration of TapA constructs, without DTT; both purified. In general terms: SEC sorts molecules by how far they enter the pores of the column.
Experiment [4] addresses TapA_(60-190) (B. subtilis 168) (UniProt P40949). Briefly: SEC; gel filtration of TapA constructs after DTT treatment; both purified.
The target in experiment [5] is T1, TasA (mature protein, residues 28 to 261) (Bacillus subtilis). Description: AUC; sedimentation velocity of mixtures: 100 µM TasA with TapA (100, 70, 10, 4, 2 or 1 µM), TapA variants (100 µM) or 250 µM peptide; 20 °C, 20 mM Na phosphate pH 7.0, 150 mM NaCl, 40,000 rpm, runs of 17 h; both purified.
Experiment [6] addresses TapA_(66-190) (B. subtilis 168) (UniProt P40949). Description: SEC; gel filtration of TapA constructs after DTT treatment; both purified.
The target of experiment [7] is TapA_(75-190) (B. subtilis 168) (UniProt P40949). Description: SEC; gel filtration of TapA constructs, without DTT; both purified.
In experiment [8] the target is TapA_(54-190) (B. subtilis 168) (UniProt P40949). Described as above.

B1: TapA (mature protein, residues 44 to 253) (protein)
chain: AFHDIETFDVSLQTCKDFQHTDKNCHYDKRWDQSDLHISDQTDTKGTVCSPFALFAVLENTGEKLKKSKWKWELHKLENARKPLKDGNVIEKGFVSNQIGDSLYKIETKKKMKPGIYAFKVYKPAGYPANGSTFEWSEPMRLAKCDEKPTVPKKETKSDVKKENETTQKDIPEKTMKEETSQEAVTKEKETQSDQKESGEEDEKSNEADQ
Take B1: the binding result in experiment [1] is “no binding”; in experiment [2], “no binding (tested: 100 µM)”; in experiment [3] it was “no binding”.

B2: TapA_(60-190) (domain or fragment, B. subtilis 168, UniProt P40949 60-190, looked up)
chain: DFQHTDKNCHYDKRWDQSDLHISDQTDTKGTVCSPFALFAVLENTGEKLKKSKWKWELHKLENARKPLKDGNVIEKGFVSNQIGDSLYKIETKKKMKPGIYAFKVYKPAGYPANGSTFEWSEPMRLAKCDE
notes: TapA of Bacillus subtilis 168, residues 60 to 190; Odd number of cysteines (free C68)
B2: the binding result in experiment [4] was “no binding (condition: upon DTT treatment)”.

As for AFHDIETFDVSLQTSKDAQ (peptide, UniProt P40949 44-62) [C58SF61A-TapA_(44-62)], in experiment [5], the binding entry is “binds weakly”.

B3: TapA_(66-190) (domain or fragment, B. subtilis 168, UniProt P40949 66-190, looked up)
chain: KNCHYDKRWDQSDLHISDQTDTKGTVCSPFALFAVLENTGEKLKKSKWKWELHKLENARKPLKDGNVIEKGFVSNQIGDSLYKIETKKKMKPGIYAFKVYKPAGYPANGSTFEWSEPMRLAKCDE
notes: TapA of Bacillus subtilis 168, residues 66 to 190; Odd number of cysteines (free C68)
Turning to B3, in experiment [6], the binding entry was “no binding (condition: upon DTT treatment)”.

B4: TapA_(75-190) (domain or fragment, UniProt P40949 75-190)
chain: DQSDLHISDQTDTKGTVCSPFALFAVLENTGEKLKKSKWKWELHKLENARKPLKDGNVIEKGFVSNQIGDSLYKIETKKKMKPGIYAFKVYKPAGYPANGSTFEWSEPMRLAKCDE
For the molecule B4, in experiment [7], the binding result is given as “no binding”.

B5: TapA_(54-190) (domain or fragment, UniProt P40949 54-190)
chain: SLQTCKDFQHTDKNCHYDKRWDQSDLHISDQTDTKGTVCSPFALFAVLENTGEKLKKSKWKWELHKLENARKPLKDGNVIEKGFVSNQIGDSLYKIETKKKMKPGIYAFKVYKPAGYPANGSTFEWSEPMRLAKCDE
For B5, the binding entry in experiment [8] is “no binding”.
